Reference: PubChem BioAssay AID260 (DTP/NCI, 2004)
The list does not hold the whole screen: it is rich in T/C values a quarter to a half above the control, in often repeated tests (any T/C) and in doses without a T/C. Other doses and runs of a compound stand elsewhere. T/C gives the treated animals as a percentage of the vehicle group. Some entries give survivors of the animals treated and no T/C: the source files T/C as zero there, which appears to mark a toxic dose or a test without result, not a measured value. Some doses without a T/C left all or most animals alive at the check, yet need not have been tolerated: survival well below the control is almost never listed, so the zero probably covers shortened survival too. Counts of survivors are from the toxicity check (mostly the fifth day) where no day follows; animals may have died later. Schedule codes are those of the source, taken here to give the interval after Q, in days (D) or hours (H), and the number of doses after X. Some entries hold several experiments; the values are given in rising order. For survival time, the PubChem record calls one and a half times the control and up active, and a quarter to a half above the control has no call in these data; cut-offs in other NCI protocols can differ. Some T/C values carry the count of animals alive at the toxicity check (mostly the fifth day); where none is given, no animal had died by that day.

Tested on: CD2F1 mice, intracerebral L1210 leukemia, survival T/C
Assay: NCI In Vivo Anticancer Drug Screen. Data for tumor model L1210 Leukemia (intracerebral) in CD2F1 (CDF1) mice
Conditions: higher T/C = longer survival
Protocol: The antitumor activity of compounds was measured in mice bearing transplantable tumors. Survival or tumor size were measured and the results are expressed as the measurement made in the treated group (T) divided by the measurement made in the vehicle treated control group (C). The tumor model used in this assay is L1210 Leukemia (intracerebral) in CD2F1 (CDF1) mice

[1] = T/C endpoint: mean survival time, dose: 100.0 mg/kg/injection, schedule: Q01DX001 (ip), vehicle: saline
[2] = T/C endpoint: median survival time, dose: 256.0 mg/kg/injection, schedule: Q01DX005 (ip), vehicle: saline with Tween-80
[3] = T/C endpoint: median survival time, dose: 64.0 mg/kg/injection, schedule: Q01DX005 (ip), vehicle: saline with Tween-80
[4] = T/C endpoint: median survival time, dose: 128.0 mg/kg/injection, schedule: Q01DX005 (ip), vehicle: saline with Tween-80

For O=C1C=CN(C2OC(CO)C(O)C2O)C(=O)C1 (centres undefined), the T/C (T/C endpoint: mean survival time, dose: 11.0 mg/kg/injection, schedule: Q01DX009 (ip), vehicle: saline) was 135 % of control, the T/C (T/C endpoint: mean survival time, dose: 16.0 mg/kg/injection, schedule: Q01DX009 (ip), vehicle: saline) was 145 % of control and the T/C (T/C endpoint: mean survival time, dose: 22.0 mg/kg/injection, schedule: Q01DX009 (ip), vehicle: saline) was 144 % of control. For the same compound, the T/C (T/C endpoint: median survival time, dose: 12.5 mg/kg/injection, schedule: Q01DX009 (ip), vehicle: saline) was 135 % of control, the T/C (T/C endpoint: median survival time, dose: 25.0 mg/kg/injection, schedule: Q01DX009 (ip), vehicle: saline) was 140 % of control and the T/C (T/C endpoint: median survival time, dose: 50.0 mg/kg/injection, schedule: Q01DX009 (ip), vehicle: saline) was 136 % of control.

In the case of O=P1(N(CCCl)CCCl)NCCCO1 (centres undefined), the T/C [1] is reported as 129 % of control, the T/C (T/C endpoint: mean survival time, dose: 200.0 mg/kg/injection, schedule: Q01DX001 (ip), vehicle: saline) is reported as 127 % of control and the survivor count (T/C endpoint: mean survival time, dose: 400.0 mg/kg/injection, schedule: Q01DX001 (ip), vehicle: saline) is reported as 5 of 8. The survivor count (T/C endpoint: median survival time, dose: 640.0 mg/kg/injection, schedule: Q01DX001 (ip), vehicle: saline) was 1 of 10.

With CN(C)CC(=O)c1ccc(O)c(O)c1 the survivor count (T/C endpoint: median survival time, dose: 200.0 mg/kg/injection, schedule: Q01DX005 (ip), vehicle: saline) was 6 of 10.

CN(C)/N=N/c1nc[nH]c1C(N)=O was tested, and the T/C (T/C endpoint: mean survival time, dose: 200.0 mg/kg/injection, schedule: Q01DX009 (ip), vehicle: saline) was 130 % of control and the T/C [2] was 127 % of control.

CN(C)/N=N/c1[nH]ncc1C(N)=O was tested, and the T/C [3] was 142 % of control and the survivor count (T/C endpoint: median survival time, dose: 512.0 mg/kg/injection, schedule: Q01DX005 (ip), vehicle: saline with Tween-80) was 3 of 6.

With O=C1c2ccccc2C(=O)c2c(NCCNCCO)ccc(NCCNCCO)c21 the T/C (T/C endpoint: median survival time, dose: 8.0 mg/kg/injection, schedule: Q01DX009 (ip), vehicle: saline with Tween-80) was 130 % of control, the T/C (T/C endpoint: median survival time, dose: 16.0 mg/kg/injection, schedule: Q01DX009 (ip), vehicle: saline with Tween-80) was 127 % of control and the T/C (T/C endpoint: median survival time, dose: 32.0 mg/kg/injection, schedule: Q01DX009 (ip), vehicle: saline) was 146 % of control. The survivor count (T/C endpoint: median survival time, dose: 64.0 mg/kg/injection, schedule: Q01DX009 (ip), vehicle: saline with Tween-80) was 5 of 6.

In the case of COC(=O)C(Cc1ccc(N(CCCl)CCCl)cc1)N=NNc1nc[nH]c1C(N)=O (centres undefined), the survivor count [3] is reported as 6 of 6 and the survivor count [4] is reported as 1 of 6.

In the case of CC/C(=C(/CC)c1ccc(O)cc1)c1ccc(O)cc1, the survivor count (T/C endpoint: median survival time, dose: 256.0 mg/kg/injection, schedule: Q01DX009 (ip), vehicle: saline) is reported as 5 of 6 and the T/C (T/C endpoint: median survival time, dose: 512.0 mg/kg/injection, schedule: Q01DX009 (ip), vehicle: saline) is reported as 132 % of control [4 of 6 alive].

NC(C/[N+]([O-])=N/O)C(=O)O (centres undefined) was tested, and the survivor count (T/C endpoint: median survival time, dose: 400.0 mg/kg/injection, schedule: Q01DX009 (ip), vehicle: Klucel (hydroxypropylcellulose) (HPC)) was 6 of 6, the survivor count (T/C endpoint: median survival time, dose: 450.0 mg/kg/injection, schedule: Q01DX009 (ip), vehicle: saline) was 5 of 6 and the survivor count (T/C endpoint: median survival time, dose: 800.0 mg/kg/injection, schedule: Q01DX009 (ip), vehicle: Klucel (hydroxypropylcellulose) (HPC)) was 4 of 6 and 6 of 6. The survivor count (T/C endpoint: median survival time, dose: 900.0 mg/kg/injection, schedule: Q01DX009 (ip), vehicle: saline) was 5 of 6.

CN(Cc1ccccc1)/N=N/c1nc[nH]c1C(N)=O was tested, and the T/C [3] was 142 % of control, the T/C [4] was 144 % of control and the T/C [2] was 135 % of control.

O=NN(CCCl)C(=O)NC1C(O)C(O)C(O)C(O)C1O (centres undefined) was tested, and the T/C (T/C endpoint: mean survival time, dose: 20.0 mg/kg/injection, schedule: Q01DX001 (ip), vehicle: saline) was 125 % of control, the T/C (T/C endpoint: mean survival time, dose: 30.0 mg/kg/injection, schedule: Q01DX001 (ip), vehicle: saline) was 147 % of control and the survivor count [1] was 10 of 10. The survivor count (T/C endpoint: mean survival time, dose: 150.0 mg/kg/injection, schedule: Q01DX001 (ip), vehicle: saline) was 7 of 10.
